Most values lie at the floor of the assay. Slopes are relative: functional sequences can read slightly below zero.

The data set has as its system Saccharomyces cerevisiae PS128 hsf1 delta, HSF1(1-493) fusion. The experiment in a line: growth estimate (transactivation domain function in HSF1 fusion, heat-shock survival) (a.u. (slope of normalised read count over time)); higher = stronger growth at 37°C, i.e. more transactivation activity. Conditions: library: random library.
As to LESQFDNCTYHDSAAVHGIG, the growth estimate was below -0.25. Turning to GISWYQARGR, the growth estimate is -0.16.

Take IGRKSGPRRLKGTPRYKGTD: the growth estimate was below -0.25.

Turning to IDVGLFIRRACAKLIATTVA, the growth estimate is below -0.25. For NVTGSLPVEWATSAVGLRVR, the growth estimate is below -0.25. Consider SRISWRVSRLSGFPDSMSFM, for which the growth estimate is below -0.25. The figure for GWSVQTGRRASRWC is below -0.25; for VWGVRCN it is below -0.25; for PFMDGVDALTERDNPHTGHP it is below -0.25. As to ATVTSSGTLDVVM, the growth estimate was -0.184.

As for FTGSSI, the growth estimate is below -0.25. As for TIAT, the growth estimate is below -0.25. For GRRVPAELTHPTCDTRCPGH, the growth estimate was below -0.25. Turning to FRVCRR, the growth estimate is below -0.25. For the substance RSEGSQMQPRGV, the growth estimate is below -0.25. Consider NPSSCLNSRCRNRVVDAVCR, for which the growth estimate is below -0.25. Regarding LLGLNLPRLRGRLLFPYHIM, the growth estimate is below -0.25.

Turning to NTRHEPAVPSSLLTLARAPA, the growth estimate is below -0.25.

Consider IRAAWLHLPPPRGRV, for which the growth estimate was below -0.25. On to TVRSICNSARSTCRWKKE, for which the growth estimate was below -0.25. The figure for QCVIEMQRGGLVHIALPTSP is below -0.25.

Turning to VYYLDSELIVSIYTKTGRRT, the growth estimate was below -0.25. Turning to QAEFIVVTEEGSLGGRGTGA, the growth estimate is below -0.25. As for PTRRTEVRVPRGAA, the growth estimate was below -0.25.

For GELTL, the growth estimate is below -0.25. Consider VGVRAARAFVNDRFVFEMRY, for which the growth estimate was below -0.253. To DRRLKGVRVSSSGGEPVLKT belongs below -0.25. As for RIVEGTPGLGVQFWKDRSSH, the growth estimate is below -0.25.

Regarding LSRGFVISSVGHFGTSTDIN, the growth estimate is below -0.25.

SRCQRRGTDEDNELLGQVSG: the growth estimate is below -0.25.

On to SSGRAVGPKGTTSAK, for which the growth estimate was below -0.25.

Take GWAVWNKNRSAGRAGSSYDM: the growth estimate was below -0.25. Turning to SLRILAPLPEIS, the growth estimate is below -0.25. Turning to IRHAGHGPGAWIGQRPCNVG, the growth estimate was below -0.25. On to LWSA, for which the growth estimate was below -0.25.

For the substance LKL, the growth estimate is below -0.25. The figure for TVCSHLGPGNPHFSAT is below -0.25; for RAFSVYNGKPPSHYLTVVIR it is below -0.25; for RPYQLQICGDDYGQLIMR it is below -0.25. The figure for GECRKYLSHAN is below -0.25; for WTRTG it is below -0.25; for RVAACGLCSPVIICAVPCVH it is below -0.25.

Turning to TGTKGPDVRVDIHGSYTSES, the growth estimate was below -0.25. LNFMLSADGTTKRTVTGRDG: the growth estimate is below -0.25. For IFRYGQCGQFPLNKVAPLSS, the growth estimate is below -0.25. As for YFTRGSRPLKTLYASPWI, the growth estimate was below -0.25. As to RIP, the growth estimate is below -0.25. As to TEEAL, the growth estimate is -0.226. For ALGCFCAVGVWHHIT, the growth estimate is -0.248. The figure for ISLGTRNV is below -0.25; for CLRNAEASCVSVKCRGDRRF it is below -0.25.
